Measured values reported in patent publication US20070166710A1, “Methods for inhibiting adipogenesis and for treating type 2 diabetes” (priority 2003, published 2007).
Where cells or extracts were used, other partners may take part. For some assays here: Negatives hold for the conditions tested. Protein sequences can lack the tags named with them. For some assays here: For at least one entry, the source does not settle the construct or the ends of the probe.

Legend:
Foxa-1 (Hnf-3alpha) = target: T1, Foxa-1 (Hnf-3alpha) (UniProt P35582); assay: EMSA; conditions: no supershift with anti-Foxa-1; Foxa-1 not detected in this tissue; protein in an extract; label: 32P
T1 sequence (looked up, limits assumed): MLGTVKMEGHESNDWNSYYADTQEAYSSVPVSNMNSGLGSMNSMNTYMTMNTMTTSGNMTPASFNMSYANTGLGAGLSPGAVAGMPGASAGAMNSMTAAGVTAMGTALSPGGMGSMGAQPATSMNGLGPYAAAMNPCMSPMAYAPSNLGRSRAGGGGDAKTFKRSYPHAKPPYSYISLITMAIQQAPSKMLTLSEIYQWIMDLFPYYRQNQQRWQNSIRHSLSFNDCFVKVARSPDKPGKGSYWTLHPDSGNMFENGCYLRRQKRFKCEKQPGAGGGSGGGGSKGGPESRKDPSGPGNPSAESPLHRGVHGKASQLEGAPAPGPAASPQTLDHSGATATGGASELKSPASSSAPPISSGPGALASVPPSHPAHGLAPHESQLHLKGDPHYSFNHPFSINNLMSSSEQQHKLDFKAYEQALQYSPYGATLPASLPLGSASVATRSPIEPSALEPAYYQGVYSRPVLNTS

[1] = target: T2, Foxa-2 (Hnf-3beta), nuclear extract of ob/ob mouse fat (Mus musculus) (UniProt P35583); assay: EMSA; conditions: protein in an extract; label: 32P
T2 sequence (looked up, limits assumed): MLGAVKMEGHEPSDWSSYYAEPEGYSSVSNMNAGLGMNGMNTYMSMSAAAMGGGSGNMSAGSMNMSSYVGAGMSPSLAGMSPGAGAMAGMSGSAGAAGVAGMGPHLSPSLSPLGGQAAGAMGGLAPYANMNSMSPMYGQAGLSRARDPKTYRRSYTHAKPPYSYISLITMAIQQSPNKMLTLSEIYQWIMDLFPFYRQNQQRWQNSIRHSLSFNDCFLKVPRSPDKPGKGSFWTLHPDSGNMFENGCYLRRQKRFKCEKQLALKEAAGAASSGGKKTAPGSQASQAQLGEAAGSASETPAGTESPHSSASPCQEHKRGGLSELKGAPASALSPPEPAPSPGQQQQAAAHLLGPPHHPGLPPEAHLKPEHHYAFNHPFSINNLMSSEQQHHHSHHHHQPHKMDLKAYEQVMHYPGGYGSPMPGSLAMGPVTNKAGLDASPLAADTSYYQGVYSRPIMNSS

| Sequence | binding result (Foxa-1 (Hnf-3alpha)) | binding result [1] |
| --- | --- | --- |
| GTGTGTAATTATGTGCTTAG (double strand) [Pref-1 promoter Foxa site] | no binding | binds |
| CTTATTTGCATATTTCCAGT (double strand) [Lpl promoter Foxa site] | no binding | binds |
| CAGGTTGCCTGTTTGTTTTC (double strand) [Ucp-2 promoter Foxa site] | no binding |  |
